The other results are listed elsewhere or left out.
Experiments:
Assay in all cases: log2 fold change, soluble protein after heating vs DMSO (PISA); higher = thermal stabilisation; K562 cells, 10 uM, 30 min; active = over 0.2 and 3.5 SD of the protein, either way, in both replicates (recomputed)
[1] = compound: NC(=O)Nc1cc(-c2cccc(F)c2)sc1C(=O)N[C@H]1CCCNC1
Outline: (§1)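 K562 cells at 2×10^6 cells/mL were given 10 μM compound for 30 min. Aliquots then went through 3 min of heating across 48°C-58°C, were pooled, and were extracted in PBS with 0.5% NP-40 at 4°C, and the supernatant after 21,000xg for 90 min was quantified by TMTpro 16plex LC-MS/MS with channel sums equalised. Thermal stability relative to control samples, from duplicates, is given as log2 fold change.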

Amino acid sequences for entries named in this document (tags omitted). A change or cut given only in a name is not applied to a line headed by its entry.
UniProt P02786, whole entry, looked up: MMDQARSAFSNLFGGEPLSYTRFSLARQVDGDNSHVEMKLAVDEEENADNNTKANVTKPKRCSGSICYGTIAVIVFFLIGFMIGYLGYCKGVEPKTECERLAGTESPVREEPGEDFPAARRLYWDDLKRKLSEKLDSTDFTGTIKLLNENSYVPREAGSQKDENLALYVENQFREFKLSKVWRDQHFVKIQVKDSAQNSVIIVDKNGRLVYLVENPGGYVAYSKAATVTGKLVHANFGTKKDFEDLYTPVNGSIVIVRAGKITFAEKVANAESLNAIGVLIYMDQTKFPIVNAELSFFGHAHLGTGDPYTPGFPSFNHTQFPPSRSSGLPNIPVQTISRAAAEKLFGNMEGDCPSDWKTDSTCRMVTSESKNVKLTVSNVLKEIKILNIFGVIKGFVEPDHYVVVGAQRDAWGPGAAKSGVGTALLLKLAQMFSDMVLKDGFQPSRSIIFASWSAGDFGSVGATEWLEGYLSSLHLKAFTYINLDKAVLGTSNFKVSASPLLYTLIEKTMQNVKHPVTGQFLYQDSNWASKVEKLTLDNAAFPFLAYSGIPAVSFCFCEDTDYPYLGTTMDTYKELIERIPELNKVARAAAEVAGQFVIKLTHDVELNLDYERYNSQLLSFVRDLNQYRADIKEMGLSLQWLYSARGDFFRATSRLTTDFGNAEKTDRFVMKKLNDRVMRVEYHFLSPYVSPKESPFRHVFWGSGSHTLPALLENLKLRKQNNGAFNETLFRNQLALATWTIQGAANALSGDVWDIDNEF
UniProt Q96BZ9: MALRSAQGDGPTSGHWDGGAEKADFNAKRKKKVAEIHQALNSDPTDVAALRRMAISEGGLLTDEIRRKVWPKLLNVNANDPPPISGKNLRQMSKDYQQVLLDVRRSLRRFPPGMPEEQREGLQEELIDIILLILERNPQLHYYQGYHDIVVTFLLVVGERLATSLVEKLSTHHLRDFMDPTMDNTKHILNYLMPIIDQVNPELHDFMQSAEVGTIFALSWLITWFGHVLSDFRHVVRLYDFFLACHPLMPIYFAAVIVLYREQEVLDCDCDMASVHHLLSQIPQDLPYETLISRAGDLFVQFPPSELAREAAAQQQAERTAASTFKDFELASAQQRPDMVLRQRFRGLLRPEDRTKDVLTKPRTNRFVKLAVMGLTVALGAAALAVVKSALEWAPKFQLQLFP
UniProt Q9NYB0: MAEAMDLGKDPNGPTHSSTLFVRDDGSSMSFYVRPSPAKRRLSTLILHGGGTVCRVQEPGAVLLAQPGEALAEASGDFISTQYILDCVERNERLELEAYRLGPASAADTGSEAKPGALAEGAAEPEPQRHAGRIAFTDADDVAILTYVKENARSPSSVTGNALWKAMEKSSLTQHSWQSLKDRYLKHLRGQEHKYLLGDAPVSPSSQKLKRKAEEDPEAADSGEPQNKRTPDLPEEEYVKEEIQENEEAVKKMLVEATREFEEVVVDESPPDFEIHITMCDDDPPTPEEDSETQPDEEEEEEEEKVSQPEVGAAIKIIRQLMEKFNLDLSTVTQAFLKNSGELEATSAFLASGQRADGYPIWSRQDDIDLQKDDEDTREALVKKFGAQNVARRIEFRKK
UniProt Q66K14, whole entry, looked up: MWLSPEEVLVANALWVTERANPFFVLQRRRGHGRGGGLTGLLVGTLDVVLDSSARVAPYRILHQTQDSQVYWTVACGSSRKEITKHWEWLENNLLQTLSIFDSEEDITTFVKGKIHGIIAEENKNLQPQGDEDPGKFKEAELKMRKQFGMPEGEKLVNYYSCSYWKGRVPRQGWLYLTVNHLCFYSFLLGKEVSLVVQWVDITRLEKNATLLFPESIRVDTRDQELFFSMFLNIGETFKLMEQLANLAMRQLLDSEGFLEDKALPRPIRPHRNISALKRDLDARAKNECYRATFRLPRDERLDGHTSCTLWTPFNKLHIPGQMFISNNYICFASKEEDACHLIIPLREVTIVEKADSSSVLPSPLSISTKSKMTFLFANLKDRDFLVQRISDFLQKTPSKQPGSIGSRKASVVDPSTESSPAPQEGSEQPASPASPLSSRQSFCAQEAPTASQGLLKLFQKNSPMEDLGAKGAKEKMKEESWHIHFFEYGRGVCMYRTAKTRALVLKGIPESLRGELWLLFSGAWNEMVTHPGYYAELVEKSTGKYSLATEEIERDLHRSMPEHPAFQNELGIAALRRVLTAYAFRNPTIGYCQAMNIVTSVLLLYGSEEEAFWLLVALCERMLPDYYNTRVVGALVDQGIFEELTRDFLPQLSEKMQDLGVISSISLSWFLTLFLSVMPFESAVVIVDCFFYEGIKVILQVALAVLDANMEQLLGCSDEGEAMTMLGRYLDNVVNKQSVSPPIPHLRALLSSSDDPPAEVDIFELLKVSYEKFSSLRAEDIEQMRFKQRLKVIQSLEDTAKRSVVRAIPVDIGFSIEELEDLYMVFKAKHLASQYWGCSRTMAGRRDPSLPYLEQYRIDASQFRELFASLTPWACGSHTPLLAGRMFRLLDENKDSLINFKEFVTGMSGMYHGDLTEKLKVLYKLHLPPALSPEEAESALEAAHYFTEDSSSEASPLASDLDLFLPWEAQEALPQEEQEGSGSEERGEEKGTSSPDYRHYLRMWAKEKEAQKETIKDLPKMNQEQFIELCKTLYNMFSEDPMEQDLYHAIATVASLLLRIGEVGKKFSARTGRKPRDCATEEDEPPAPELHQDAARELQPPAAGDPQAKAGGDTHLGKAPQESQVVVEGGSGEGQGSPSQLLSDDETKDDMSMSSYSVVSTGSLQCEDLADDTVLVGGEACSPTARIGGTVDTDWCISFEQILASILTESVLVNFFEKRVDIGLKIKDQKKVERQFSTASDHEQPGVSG
UniProt Q9BVV7: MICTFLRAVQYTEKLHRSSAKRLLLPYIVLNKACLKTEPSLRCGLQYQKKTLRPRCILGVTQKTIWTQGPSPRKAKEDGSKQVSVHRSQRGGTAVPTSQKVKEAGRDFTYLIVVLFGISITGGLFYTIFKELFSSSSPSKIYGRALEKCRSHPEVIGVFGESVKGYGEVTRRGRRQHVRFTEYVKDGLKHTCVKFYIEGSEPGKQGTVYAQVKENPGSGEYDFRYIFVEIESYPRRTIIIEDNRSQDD
UniProt Q9Y5L4: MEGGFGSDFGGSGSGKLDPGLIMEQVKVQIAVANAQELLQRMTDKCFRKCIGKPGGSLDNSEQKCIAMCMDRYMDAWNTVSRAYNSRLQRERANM
UniProt O75663: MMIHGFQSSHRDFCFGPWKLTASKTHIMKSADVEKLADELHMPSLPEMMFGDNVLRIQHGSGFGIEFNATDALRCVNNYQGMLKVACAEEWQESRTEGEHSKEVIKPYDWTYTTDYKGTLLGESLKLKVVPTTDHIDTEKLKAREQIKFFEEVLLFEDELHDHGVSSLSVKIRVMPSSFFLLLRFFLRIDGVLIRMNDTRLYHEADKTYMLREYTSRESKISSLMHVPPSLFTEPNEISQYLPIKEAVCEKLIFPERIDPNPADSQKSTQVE
UniProt P52888, whole entry, looked up: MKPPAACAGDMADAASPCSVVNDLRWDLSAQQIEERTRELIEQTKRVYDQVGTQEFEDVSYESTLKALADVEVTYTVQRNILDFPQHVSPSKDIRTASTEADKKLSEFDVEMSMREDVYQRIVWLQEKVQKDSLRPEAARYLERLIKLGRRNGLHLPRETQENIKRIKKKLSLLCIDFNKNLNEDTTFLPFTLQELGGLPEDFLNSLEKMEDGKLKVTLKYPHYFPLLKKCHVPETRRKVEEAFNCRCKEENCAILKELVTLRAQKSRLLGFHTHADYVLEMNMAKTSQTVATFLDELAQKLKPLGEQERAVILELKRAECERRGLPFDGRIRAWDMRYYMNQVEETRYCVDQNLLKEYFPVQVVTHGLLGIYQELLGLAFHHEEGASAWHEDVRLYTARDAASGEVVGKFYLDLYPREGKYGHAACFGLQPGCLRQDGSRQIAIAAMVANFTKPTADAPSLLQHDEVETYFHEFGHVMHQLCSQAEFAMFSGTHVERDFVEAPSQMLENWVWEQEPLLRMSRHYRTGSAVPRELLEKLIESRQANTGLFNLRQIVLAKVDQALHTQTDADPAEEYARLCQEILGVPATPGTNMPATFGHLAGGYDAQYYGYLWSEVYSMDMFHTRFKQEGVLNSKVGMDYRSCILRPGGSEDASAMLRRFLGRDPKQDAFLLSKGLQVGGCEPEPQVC
UniProt Q9Y5J6: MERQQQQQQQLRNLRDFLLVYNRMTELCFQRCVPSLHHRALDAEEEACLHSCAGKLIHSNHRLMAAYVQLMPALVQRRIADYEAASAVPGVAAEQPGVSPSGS
UniProt Q92609: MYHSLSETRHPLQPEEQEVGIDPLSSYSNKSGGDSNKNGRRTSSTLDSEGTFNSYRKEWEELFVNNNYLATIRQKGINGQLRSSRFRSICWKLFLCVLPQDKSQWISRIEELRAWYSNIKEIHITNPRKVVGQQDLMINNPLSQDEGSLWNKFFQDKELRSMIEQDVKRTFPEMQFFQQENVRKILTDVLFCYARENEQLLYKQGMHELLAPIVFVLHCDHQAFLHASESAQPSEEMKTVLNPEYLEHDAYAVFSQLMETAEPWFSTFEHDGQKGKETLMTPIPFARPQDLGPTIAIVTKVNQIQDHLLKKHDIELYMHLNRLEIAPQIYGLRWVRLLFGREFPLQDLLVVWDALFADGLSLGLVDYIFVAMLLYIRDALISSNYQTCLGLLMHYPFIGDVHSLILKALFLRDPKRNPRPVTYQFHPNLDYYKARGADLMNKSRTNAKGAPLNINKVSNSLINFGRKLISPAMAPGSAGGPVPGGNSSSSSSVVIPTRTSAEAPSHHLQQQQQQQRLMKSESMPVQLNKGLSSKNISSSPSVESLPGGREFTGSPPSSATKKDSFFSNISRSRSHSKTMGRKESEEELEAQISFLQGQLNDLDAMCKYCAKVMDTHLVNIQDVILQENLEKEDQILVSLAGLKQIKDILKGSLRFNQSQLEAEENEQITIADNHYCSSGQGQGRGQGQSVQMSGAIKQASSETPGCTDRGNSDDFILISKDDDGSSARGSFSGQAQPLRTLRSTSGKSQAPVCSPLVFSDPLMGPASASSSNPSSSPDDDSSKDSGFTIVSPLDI
UniProt Q9H5Q4: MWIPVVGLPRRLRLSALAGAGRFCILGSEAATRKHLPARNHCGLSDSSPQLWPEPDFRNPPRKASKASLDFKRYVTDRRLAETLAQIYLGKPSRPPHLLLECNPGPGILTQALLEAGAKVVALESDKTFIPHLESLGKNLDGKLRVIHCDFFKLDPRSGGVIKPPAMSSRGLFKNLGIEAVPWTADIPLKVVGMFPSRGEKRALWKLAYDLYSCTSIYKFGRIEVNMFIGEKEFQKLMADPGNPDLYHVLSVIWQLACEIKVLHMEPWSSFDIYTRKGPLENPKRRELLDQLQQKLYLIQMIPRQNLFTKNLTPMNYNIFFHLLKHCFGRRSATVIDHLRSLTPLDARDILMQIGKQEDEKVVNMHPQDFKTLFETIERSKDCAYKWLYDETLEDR
UniProt Q9UDY2: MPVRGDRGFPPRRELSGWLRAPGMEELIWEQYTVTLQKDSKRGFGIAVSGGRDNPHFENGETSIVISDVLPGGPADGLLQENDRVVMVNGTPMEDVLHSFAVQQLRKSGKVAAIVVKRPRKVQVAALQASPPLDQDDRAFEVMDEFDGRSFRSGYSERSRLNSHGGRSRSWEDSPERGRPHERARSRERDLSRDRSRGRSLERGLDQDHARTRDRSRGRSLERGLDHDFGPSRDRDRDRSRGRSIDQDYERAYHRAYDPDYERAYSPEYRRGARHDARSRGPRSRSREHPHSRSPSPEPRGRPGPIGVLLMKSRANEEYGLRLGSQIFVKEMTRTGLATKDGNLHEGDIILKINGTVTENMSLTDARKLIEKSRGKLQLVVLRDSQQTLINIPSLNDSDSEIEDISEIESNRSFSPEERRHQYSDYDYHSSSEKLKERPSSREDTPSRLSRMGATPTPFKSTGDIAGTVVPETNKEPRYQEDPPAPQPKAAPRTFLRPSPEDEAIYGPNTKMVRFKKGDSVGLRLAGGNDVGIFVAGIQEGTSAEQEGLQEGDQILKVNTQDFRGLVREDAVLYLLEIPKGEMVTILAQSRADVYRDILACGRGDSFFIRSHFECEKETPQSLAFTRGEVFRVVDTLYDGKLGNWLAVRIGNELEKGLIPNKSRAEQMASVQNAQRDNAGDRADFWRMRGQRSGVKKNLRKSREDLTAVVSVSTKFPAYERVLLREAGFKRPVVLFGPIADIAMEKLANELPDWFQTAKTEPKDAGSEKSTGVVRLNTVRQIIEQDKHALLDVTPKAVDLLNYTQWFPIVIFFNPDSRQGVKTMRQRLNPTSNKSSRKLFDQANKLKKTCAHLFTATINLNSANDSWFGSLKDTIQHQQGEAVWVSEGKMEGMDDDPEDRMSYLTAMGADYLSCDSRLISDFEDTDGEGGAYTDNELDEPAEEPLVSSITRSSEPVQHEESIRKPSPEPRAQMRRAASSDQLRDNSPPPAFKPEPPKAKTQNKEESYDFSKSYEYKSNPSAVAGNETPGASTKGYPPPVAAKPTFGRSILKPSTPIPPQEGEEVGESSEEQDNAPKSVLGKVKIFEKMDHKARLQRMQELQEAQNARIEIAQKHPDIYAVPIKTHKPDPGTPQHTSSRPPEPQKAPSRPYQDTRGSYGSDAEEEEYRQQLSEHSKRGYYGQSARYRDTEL

[2] = compound: NC(=O)c1cnc(N[C@@H]2CCCC[C@@H]2N)nc1Nc1cccc(-n2nccn2)c1
Outline: as §1

[3] = compound: NC1(c2ccc(-c3nc4ccn5c(=O)[nH]nc5c4cc3-c3ccccc3)cc2)CCC1
Outline: as §1

[4] = compound: NCC(=O)Nc1ccc(-n2nc(C(F)(F)F)cc2-c2ccc3c(ccc4ccccc43)c2)cc1
Outline: as §1

[5] = compound: Nc1ccccc1NC(=O)c1ccc(CNC(=O)OCc2cccnc2)cc1 [entinostat]
Outline: as §1

[6] = compound: O=C(CCCCCCC(=O)Nc1ccccc1)NO [vorinostat]
Outline: as §1

[7] = compound: O=C(CCCCCCNC(=O)c1cnc(N(c2ccccc2)c2ccccc2Cl)nc1)NO [citarinostat]
Outline: as §1

[8] = compound: O=C(O)c1ccc2c(c1)nc(Nc1cccc(Cl)c1)c1ccncc12 [silmitasertib]
Outline: as §1

[9] = compound: O=C1NC(=O)C(c2cnc3ccccn23)=C1c1cn2c3c(cc(F)cc13)CN(C(=O)N1CCCCC1)CC2
Outline: as §1

[10] = compound: c1cc(OCCN2CCCCC2)cc(-c2n[nH]c3ccc(-c4nnc[nH]4)cc23)c1
Outline: as §1

[11] = compound: c1cn2cc(-c3ccc4cn[nH]c4c3)nc(Nc3ccc(N4CCOCC4)cc3)c2n1 [entospletinib]
Outline: as §1

Measured: log2 fold change

TFRC (UniProt P02786)
inactive: [1] -0.021 | [2] -0.031 | [4] -0.001 | [5] -0.008 | [6] -0.02 | [7] 0.062 | [8] 0.006 | [9] -0.023 | [10] -0.071
active: [3] -0.823

TBC1D20 isoform 3 (UniProt Q96BZ9)
inactive: [1] -0.062 | [2] 0.052 | [3] 0.027 | [4] -0.08 | [5] 0.026 | [6] 0.033 | [7] 0.293 | [8] 0.03 | [9] -0.007 | [10] 0.03

THADA (UniProt Q6YHU6)
inactive: [1] 0.004 | [2] -0.085 | [3] -0.147 | [4] -0.082 | [5] 0.014 | [6] -0.001 | [7] 0.121 | [8] -0.061 | [9] -0.025 | [10] -0.013

TERF2IP (UniProt Q9NYB0)
inactive: [1] 0.009 | [2] -0.132 | [3] 0.007 | [4] -0.018 | [5] 0.061 | [6] 0.041 | [7] 0.068 | [8] 0.121 | [9] -0.051 | [10] -0.073

TBC1D9B (UniProt Q66K14)
inactive: [1] -0.194 | [2] -0.095 | [3] -0.07 | [4] -0.012 | [5] -0.085 | [6] -0.034 | [7] 0.173 | [8] 0.021 | [9] -0.176 | [10] -0.13

Copied from above (2 entries):
TERF2IP (UniProt Q9NYB0)
inactive: [1] 0.009 | [2] -0.132 | [3] 0.007 | [4] -0.018 | [5] 0.061 | [6] 0.041 | [7] 0.068 | [8] 0.121 | [9] -0.051 | [10] -0.073

TBC1D9B (UniProt Q66K14)
inactive: [1] -0.194 | [2] -0.095 | [3] -0.07 | [4] -0.012 | [5] -0.085 | [6] -0.034 | [7] 0.173 | [8] 0.021 | [9] -0.176 | [10] -0.13

Further entries follow:

TBK1 (UniProt Q9UHD2)
inactive: [1] 0.196 | [2] 0 | [3] -0.086 | [4] -0.118 | [5] 0.055 | [6] -0.025 | [7] 0.064 | [8] 0.057 | [9] -0.014 | [10] -0.029

TIMM29 (UniProt Q9BSF4)
inactive: [1] -0.16 | [2] -0.024 | [3] -0.069 | [4] -0.011 | [5] -0.04 | [6] -0.093 | [7] -0.016 | [8] 0.006 | [9] -0.08 | [10] -0.004

TGFBI (UniProt Q15582)
inactive: [1] -0.037 | [2] -0.136 | [3] -0.116 | [4] -0.116 | [5] 0.056 | [6] 0.309 | [7] -0.056 | [8] 0.114 | [9] -0.01 | [10] 0.202

TIMM21 (UniProt Q9BVV7)
inactive: [1] -0.041 | [2] -0.055 | [3] -0.087 | [4] -0.047 | [5] -0.015 | [6] 0.04 | [7] 0.052 | [8] 0.024 | [9] -0.016 | [10] -0.016

TBC1D23 (UniProt Q9NUY8)
active: [3] -0.33
inactive: [1] 0.015 | [2] -0.135 | [4] -0.009 | [5] 0.06 | [6] 0.115 | [7] 0.045 | [8] 0.02 | [9] -0.073 | [10] -0.047

THRAP3 (UniProt Q9Y2W1)
inactive: [1] -0.02 | [2] -0.076 | [3] -0.153 | [4] -0.037 | [5] 0.024 | [6] 0.021 | [7] 0.005 | [8] -0.169 | [9] -0.026 | [10] -0.257

TLCD4 (UniProt Q96MV1)
inactive: [1] 0.011 | [2] -0.006 | [3] -0.089 | [4] 0.02 | [5] 0.021 | [6] -0.07 | [7] 0.102 | [8] 0.008 | [9] 0.139 | [10] -0.124 | [11] -0.019

TFR2 (UniProt Q9UP52)
inactive: [1] -0.039 | [2] -0.004 | [4] 0.007 | [5] 0.007 | [6] 0.002 | [7] 0.033 | [8] -0.001 | [9] -0.035 | [10] -0.067
active: [3] -0.601

TIMM13 (UniProt Q9Y5L4)
inactive: [1] 0.114 | [2] 0.031 | [3] -0.027 | [4] 0.012 | [5] 0.01 | [6] 0.031 | [7] 0.117 | [8] -0.016 | [9] 0.152 | [10] 0.107

TIPRL (UniProt O75663)
active: [3] -0.209
inactive: [1] -0.057 | [2] -0.114 | [4] -0.068 | [5] 0.033 | [6] 0.095 | [7] 0.069 | [8] -0.032 | [9] -0.06 | [10] -0.012

TGM2 (UniProt P21980)
inactive: [1] -0.004 | [2] -0.006 | [3] -0.084 | [4] 0.024 | [5] -0.003 | [6] 0.037 | [7] 0.049 | [8] -0.022 | [9] -0.04 | [10] -0.013 | [11] -0.049

TECR (UniProt Q9NZ01)
inactive: [1] 0 | [2] -0.071 | [3] -0.087 | [4] -0.048 | [5] 0.042 | [6] 0.064 | [7] 0.07 | [8] 0.025 | [9] -0.07 | [10] -0.056

TIMM44 (UniProt O43615)
inactive: [1] -0.085 | [2] -0.141 | [4] -0.023 | [5] 0.084 | [6] 0.04 | [7] 0.066 | [8] -0.041 | [9] -0.027 | [10] -0.048
active: [3] -0.372

THOP1 (UniProt P52888)
inactive: [1] 0.025 | [2] 0.001 | [3] 0.033 | [4] 0.008 | [5] -0.034 | [6] -0.005 | [7] 0.06 | [8] -0.037 | [9] -0.014 | [10] 0.014 | [11] -0.05

TIMM10B (UniProt Q9Y5J6)
inactive: [1] 0.021 | [2] 0.257 | [3] -0.111 | [4] -0.007 | [5] 0.016 | [6] -0.202 | [7] 0.074 | [8] 0.034 | [9] -0.04 | [10] 0.022

TCOF1 isoform 4 (UniProt Q13428)
inactive: [1] 0.131 | [2] -0.065 | [3] -0.014 | [4] -0.013 | [5] -0.015 | [6] -0.026 | [7] -0.002 | [8] 0.002 | [9] 0.045 | [10] -0.112

TBC1D15 isoform 3 (UniProt Q8TC07)
inactive: [1] -0.013 | [2] -0.086 | [3] -0.202 | [4] -0.033 | [5] 0.118 | [6] 0.101 | [7] 0.036 | [8] 0.071 | [9] -0.008 | [10] -0.059

TBC1D5 isoform 2 (UniProt Q92609)
inactive: [1] -0.006 | [2] -0.103 | [3] -0.233 | [4] -0.058 | [5] 0.029 | [6] 0.086 | [7] 0.111 | [8] 0.031 | [9] -0.076 | [10] -0.094

TBRG4 (UniProt Q969Z0)
inactive: [1] -0.103 | [2] -0.172 | [3] -0.58 | [4] -0.255 | [5] 0.214 | [6] 0.201 | [7] 0.128 | [8] 0.074 | [9] -0.191 | [10] -0.086

TFB2M (UniProt Q9H5Q4)
inactive: [1] -0.029 | [2] -0.066 | [3] -0.187 | [4] -0.066 | [5] 0.054 | [6] 0.027 | [7] 0.01 | [8] 0.046 | [9] -0.024 | [10] 0.003

TIMM10 (UniProt P62072)
inactive: [1] -0.004 | [2] 0.042 | [3] -0.027 | [4] -0.077 | [5] 0.058 | [6] -0.048 | [7] -0.012 | [8] 0.009 | [9] -0.04 | [10] -0.043

TGFBRAP1 (UniProt Q8WUH2)
inactive: [1] 0.065 | [2] -0.03 | [3] -0.209 | [4] -0.006 | [5] -0.013 | [6] 0.256 | [7] -0.367 | [8] 0.056 | [9] 0.069 | [10] 0.013

TELO2 (UniProt Q9Y4R8)
inactive: [1] -0.039 | [2] -0.1 | [3] -0.207 | [4] 0.037 | [5] 0.039 | [6] 0.137 | [7] 0.009 | [8] 0.067 | [9] 0.117 | [10] -0.075

TJP2 isoform 7 (UniProt Q9UDY2)
inactive: [1] -0.129 | [2] -0.007 | [3] -0.171 | [4] -0.051 | [5] 0.014 | [6] 0.161 | [7] 0.039 | [8] -0.061 | [9] 0.025 | [10] -0.167
